Measurements from “University of Dundee, Small-Polar-MMV Screening Library” (2021), ChEMBL document CHEMBL3988442.

Amino acid sequences for entries named in this document (tags omitted).
UniProt E9BF75, entry or part of it: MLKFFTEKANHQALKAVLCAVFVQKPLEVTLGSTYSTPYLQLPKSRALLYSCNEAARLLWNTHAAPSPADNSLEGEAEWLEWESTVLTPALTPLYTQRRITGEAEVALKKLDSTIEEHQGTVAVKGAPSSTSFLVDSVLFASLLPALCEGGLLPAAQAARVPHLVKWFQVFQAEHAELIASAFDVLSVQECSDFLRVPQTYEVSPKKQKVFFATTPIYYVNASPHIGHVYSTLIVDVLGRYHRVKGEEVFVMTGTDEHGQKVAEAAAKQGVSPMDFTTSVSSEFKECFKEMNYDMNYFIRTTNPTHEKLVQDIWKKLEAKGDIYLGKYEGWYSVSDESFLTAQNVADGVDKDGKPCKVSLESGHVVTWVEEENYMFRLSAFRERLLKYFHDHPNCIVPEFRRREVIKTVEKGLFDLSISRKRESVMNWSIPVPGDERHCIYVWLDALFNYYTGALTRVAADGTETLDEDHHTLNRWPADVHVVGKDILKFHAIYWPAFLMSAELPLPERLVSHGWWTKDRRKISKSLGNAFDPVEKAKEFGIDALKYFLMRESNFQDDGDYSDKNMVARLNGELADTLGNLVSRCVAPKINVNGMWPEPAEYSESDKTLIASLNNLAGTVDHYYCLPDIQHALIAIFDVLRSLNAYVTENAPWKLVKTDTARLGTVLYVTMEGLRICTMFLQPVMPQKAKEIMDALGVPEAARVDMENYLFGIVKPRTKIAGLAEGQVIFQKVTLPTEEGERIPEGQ

All values are in %.
How 0% and 100% were set is not recorded. Most values in the screen are low, and negative values occur.
This is an unselected part of the compounds tested.

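Methionyl-tRNA synthetase (putative), Leishmania donovani (UniProt E9BF75). Primary screen of methionyl-tRNA synthetase; the read-out is not stated. The test concentration is not given. Values are per cent inhibition. About 68,000 compounds were tested under these conditions; 0.035% (about 24) showed 50% or more at least once.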

* COCc1ncn2c1CN(C(=O)Nc1ccccc1)CC2 | 7.107%
* C1CCN(CCOC2CCNCC2)C1 | -3.141%
* CS(=O)(=O)N1CCc2c(cccc2NC(=O)CC(F)(F)F)C1 | 14.79%
* c1nc(N2CCOC(Cn3cncn3)C2)c2cc[nH]c2n1 (stereo not given) | 11.17%
* c1ccc(Cn2cccn2)c(CNCC2CNc3ccnn3C2)c1 (stereo not given) | 24.7%
* O=S(=O)(NCc1ccccc1Cn1cncn1)N1CCCCC1 | 17.09%
* Cc1nn(C(C)C)c(C)c1NC(=O)c1ccccc1 | 17.5%
* Cc1cc(NC(=O)CCN2CCn3c(nnc3C3CC3)C2)no1 | 5.155%
* CCc1nc(NS(=O)(=O)c2cc(C)ccc2F)no1 | 11.71%
* CC(C)N1CC(C(=O)N2CCC(Oc3ccccc3Cl)CC2)CC1=O (stereo not given) | 14.18%
* CCc1ccc(C(=O)N2CCCN(Cc3nccn3CC)CC2)s1 | 8.947%
* Cc1ccc(C(NC(=O)Cc2nc3ncccn3n2)C2CC2)cc1 (stereo not given) | 22.38%
* CN(C)C1CCN(C(=O)c2ccc(Cn3ccccc3=O)o2)CC1 | 15.56%
* Cc1cc(C)n(C2CCCN(C(=O)c3ccc4c(c3)COC4)C2)n1 (stereo not given) | 10.48%
* COc1ccc(CNc2ncnc3c2NC(=O)CN3)cc1 | 12.01%
* O=C(CN1CCOC1=O)N1CCc2nnc(Cc3ccccc3)n2CC1 | 6.115%
* Cc1ccc(N2CCO[C@H]3[C@H](OCC(=O)N4CCCC4)CC[C@@H]32)cc1 | 7.266%
* Cc1ccc(CN(Cc2ccccn2)C2CC(C)(C)NC(C)(C)C2)s1 | 11.99%
* CCn1nccc1CNC(=O)Cn1cc2c(n1)c(C)nn2C(C)C | 21.51%
* CC(C)[C@H](NS(C)(=O)=O)C(=O)NCc1cc(-c2ccccc2)n[nH]1 | 6.553%
* CN(C)C(=O)N1C[C@@H]2CC[C@H](C1)N(Cc1nnc(C3CC3)o1)C2 | 9.14%
* c1cnn(CC2CN(Cc3nc(C4CC4)no3)CCO2)c1 (stereo not given) | 6.627%
* Cc1nc2c(c(N3CC=CC3)n1)CCN(Cc1ccoc1)CC2 | 11.02%
* Cc1nc(N)nc(N2CCOc3ccc(CO)cc3C2)c1C | 15.32%
* CCC(=O)Nc1cc(Br)cn(C)c1=O | 6.969%
* Cc1nc2c(c(NC(C)C)n1)CCN(C(=O)c1ccno1)CC2 | 9.408%
* Cc1nc(NCc2ccccc2)cc(C(C)Cn2nc(C)c(C)c2C)n1 (stereo not given) | 12.11%
* O=C1CCC2(CCN(Cc3cscn3)CC2)CN1[C@H]1CC[C@H](O)CC1 | 6.723%
* CCOC(=O)NC(CNC(=O)c1cccc(C)n1)CC(C)C (stereo not given) | 3.559%
* O=C1CC[C@]2(CC[C@@H](NC(=O)NCc3cccnc3)CC2)N1 | 12.89%
* Cn1cc(CN2CC[C@H](O)[C@@H]2Cc2ccccc2)cn1 | 3.483%
* CSc1ccc(-c2nc(CN3CCC(C(N)=O)CC3)c(C)o2)cc1 | 3.133%
* CCc1ccc(C(=O)N2CCC(O)(CN3CCOCC3)C(C)(C)C2)[nH]1 (stereo not given) | 16.08%
* CCOc1cccc(COC(=O)c2cc(C)on2)n1 | 19%
* COc1ccccc1OC1(C(=O)O)CCN(c2cnccn2)CC1 | 2.017%
* COc1cccc(CN(C(=O)Nc2nncs2)C2CCC(O)CC2)c1 (stereo not given) | 13.83%
* COc1ccc(-c2cccc(CC3(C(=O)O)CCOCC3)c2)cc1 | 16.67%
* COC(=O)c1cc(NS(=O)(=O)c2cn(C)cn2)c(F)cc1F | 11.54%
* Cc1cc(C)c(CNc2ncnc3ccccc23)c(=O)[nH]1 | 7.67%
* O=C1CO[C@@H]2CN(CC3CCOC3)C[C@H]2N1Cc1cccc(F)c1 (stereo not given in full) | 15.56%
* Cc1cccc(C2(NC(=O)CCN3C(=O)CCC3=O)CCCC2)c1 | 9.859%
* CCc1cn[nH]c1C1CCCN(C(=O)c2ncoc2C(C)C)C1 (stereo not given) | 6.72%
* CCn1ncnc1C(C)NC(=O)COc1ccc(Cl)cc1Cl (stereo not given) | 10.05%
* COc1ccccc1C(C)CC(=O)N1CCN(S(N)(=O)=O)CC1 (stereo not given) | 17.17%
* CCOCC(O)CN1CCN(C(=O)c2ccsc2)CC1 (stereo not given) | 4.348%
* Cn1ccnc1SCCNC(=O)c1cc(S(N)(=O)=O)ccc1F | 10.14%
* CNC(=O)N1CCC(NC(=O)c2cnn(C)c2)CC1 | 15.95%
* COc1ccc(NC(=O)NCc2cccc(N(C)C)n2)c(Cl)c1 | 15.62%
* Cc1ccc(CN2C[C@@H]3CN(C(=O)c4cccn4C)C[C@@H]3C2)cc1 | 12.32%
* Cc1ccsc1CN(C)CCc1scnc1C | 10.18%
* CCC(=O)N1CCN(C(=O)c2cn3ccsc3n2)[C@H]2CS(=O)(=O)C[C@H]21 | 13.2%
* CNc1nc2c(s1)C(=O)CN(C(=O)NCc1ccccc1)C2 | 11.19%
* CC(=O)NCC(=O)N1CCN(Cc2ccncc2)c2ncccc2C1 | 1.099%
* CN(Cc1nc(CC2CC2)no1)CC1COc2ccccc2O1 (stereo not given) | 7.796%
* CC(C1CC1)n1nccc1NC(=O)CN(C)C(=O)OC(C)(C)C (stereo not given) | 13.06%
* CCc1csc(CCNC(=O)C2CC(=O)N(C(C)C)C2)n1 (stereo not given) | 7.087%
* CCn1ncc2c1C(COC)CN(S(=O)(=O)C1CC1)C2 (stereo not given) | 6.015%
* COC(=O)c1ccc(-c2ccc(/C=C3\C(=O)NC(=N)N3C)o2)cc1 | 0%
* Cc1ncsc1C(=O)OCCN1CCCc2ccccc21 | 18.58%
* CCN(CCn1cccn1)C(=O)CN1C(=O)OC[C@@H]1c1ccccc1 | 9.408%

The first 7 entries again:

- COCc1ncn2c1CN(C(=O)Nc1ccccc1)CC2 | 7.107%
- C1CCN(CCOC2CCNCC2)C1 | -3.141%
- CS(=O)(=O)N1CCc2c(cccc2NC(=O)CC(F)(F)F)C1 | 14.79%
- c1nc(N2CCOC(Cn3cncn3)C2)c2cc[nH]c2n1 (stereo not given) | 11.17%
- c1ccc(Cn2cccn2)c(CNCC2CNc3ccnn3C2)c1 (stereo not given) | 24.7%
- O=S(=O)(NCc1ccccc1Cn1cncn1)N1CCCCC1 | 17.09%
- Cc1nn(C(C)C)c(C)c1NC(=O)c1ccccc1 | 17.5%